# Results of single-concentration screens

Data taken from ChEMBL document CHEMBL3988442, “University of Dundee, Small-Polar-MMV Screening Library” (2021).

A: 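Whole-parasite assay of Trypanosoma brucei over 72 hours; the read-out is not stated. Tested at 30 µM. The record gives no direction; compounds that gave an IC50 in retests scored well above the rest, so higher reads as stronger inhibition. Values scatter widely below zero; nearly all retest evidence comes from the higher of the two concentrations used. Of about 64,000 compounds tested this way, about 940 (1.5%) reached 50% or more in at least one test.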
B: 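Cell assay of Leishmania donovani living inside macrophages; the read-out is not stated. Tested at 30 µM. Higher reads as stronger inhibition (inferred: compounds with an IC50 in retests scored well above the rest). Of about 69,000 compounds tested this way, about 1,000 (1.5%) reached 50% or more in at least one test.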

Results are given as percent effect. The record does not define 0% and 100%; most values in the screen are far below 50% and negative numbers occur (in some assays of this library far below -100). Compounds were drawn at random from those tested, without regard to their results.

SMILES | A | B
[H][C@@]12CN(C(=O)CCO)C[C@]1([H])C(=O)N(c1ccccc1)C2 | -5.605 | 4.266
Cc1nc(CN2CCN(C(=O)NC(C)Cn3ccnc3)CC2)cs1 (centres undefined) | 4.822 | 14.72
CCC(C(=O)NCc1csc(-c2ncccn2)n1)n1cccn1 (centres undefined) | -35.58 | -6.876
CCc1cc(N2CCC(NCCc3nc(C)c(C)s3)CC2)nc(C)n1 | -7.906 | 22.72
Fc1cccc2[nH]c(CN3CCn4c(nnc4C4CC4)C3)nc12 | -38.25 | -20.99
Cc1noc(C)c1CN1Cc2cn(C)nc2C(COCC2CC2)C1.O=C(O)C(F)(F)F.O=C(O)C(F)(F)F (centres undefined) | -12.91 | 9.987
O=C(CN1CCSCC1c1ccccc1)N1CCOCC1 (centres undefined) | -7.15 | 18.07
CN1CCN(C(=O)c2cc(-c3cccs3)cs2)CC1 | 3.412 | 8.1
Cc1cc(C(=O)NCC(O)c2c(Cl)cccc2Cl)nn1C (centres undefined) | -63.85 | -1.27
Cc1nc[nH]c1-c1nccn1-c1ccc(C(N)=O)c(N2CCCC2)c1 | -2.058 | -17.28
O=C(c1cn2cc(Cl)ccc2n1)N1CCC(CCn2cccn2)CC1 | -26.51 | 20.61
[H][C@]12CC[C@]([H])(CN(Cc3ccccc3)C1)N(C(=O)C1CCS(=O)(=O)CC1)C2 | -46.4 | 14.2
[H][C@]12CC[C@]([H])(CN(c3cnccn3)C1)N(C(=O)c1csc(C)c1CC)C2 | -7.684 | 3.143
Cc1csc(CCNc2ccc(C#N)cc2F)n1 | -1.43 | -2.779
COc1cc(N2CCC3(CCN(C(=O)c4cccnc4)CC3)C2)ncn1.O=C(O)C(F)(F)F | -95.87 | 13.53
Cc1cc(N2CCc3c(ncn3C3CC3)C2)nc(N)n1 | -4.476 | 31.6
CCCS(=O)(=O)N1CCC(c2ccc(OC)cc2)CC1 | -37.24 | 13.27
COc1ccc(-c2n[nH]cc2CN2CCSCC2)c(OC)c1 | -11.05 | 23.99
Cc1cccc(NC(=O)N2CCN(Cc3nnc(C(C)C)o3)CC2)c1 | 4.897 | 5.693
N#Cc1cnc(NCc2cccc(C(=O)N3CCCC3)c2)c(Cl)c1 | -16.28 | 0.5961
Cc1cnn(CC2CCCCN2Cc2nc(C)c3ccccc3n2)c1 (centres undefined) | -8.505 | -2.899
Cc1ccc(-n2nnc(C(=O)NCCS(N)(=O)=O)c2C2CC2)cc1 | -32.53 | 20.42
CN(C)C(=O)CC1CC2(CCN(c3ncccn3)CC2)c2ccccc21.O=C(O)C(F)(F)F (centres undefined) | -2.4 | 17.04
c1cnn(Cc2ccc(CN3CCC4(CCNCC4)C3)cc2)c1 | 1.245 | 4.296

Repeated from the top, 3 entries:

* [H][C@@]12CN(C(=O)CCO)C[C@]1([H])C(=O)N(c1ccccc1)C2 : A: -5.605%; B: 4.266%
* Cc1nc(CN2CCN(C(=O)NC(C)Cn3ccnc3)CC2)cs1 (centres undefined) : A: 4.822%; B: 14.72%
* CCC(C(=O)NCc1csc(-c2ncccn2)n1)n1cccn1 (centres undefined) : A: -35.58%; B: -6.876%